Here are results for one substance from paper PMC4751549.

By UniProt entry, the sequences of proteins in these tests, tags left out. Where a name states a change or a piece, a line headed by the entry shows the natural chain unless it says otherwise.
UniProt P36012: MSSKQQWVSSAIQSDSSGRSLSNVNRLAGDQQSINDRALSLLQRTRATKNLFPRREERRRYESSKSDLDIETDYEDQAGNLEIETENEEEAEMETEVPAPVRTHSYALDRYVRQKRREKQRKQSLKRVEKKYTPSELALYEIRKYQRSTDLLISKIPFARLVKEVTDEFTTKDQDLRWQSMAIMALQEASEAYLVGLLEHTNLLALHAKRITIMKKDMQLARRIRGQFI

These are yes or no findings as the source states them, for the method shown. In cells and extracts the contact can be indirect. Some entries that bind do so weakly or less than the wild type. Tags and fused reporters may be left off the sequences shown.

The assay addresses T1, Ubp8-9myc (ubiquitin-specific processing protease 8, SAGA DUB module subunit) (S. cerevisiae) (UniProt P50102).
T1 sequence: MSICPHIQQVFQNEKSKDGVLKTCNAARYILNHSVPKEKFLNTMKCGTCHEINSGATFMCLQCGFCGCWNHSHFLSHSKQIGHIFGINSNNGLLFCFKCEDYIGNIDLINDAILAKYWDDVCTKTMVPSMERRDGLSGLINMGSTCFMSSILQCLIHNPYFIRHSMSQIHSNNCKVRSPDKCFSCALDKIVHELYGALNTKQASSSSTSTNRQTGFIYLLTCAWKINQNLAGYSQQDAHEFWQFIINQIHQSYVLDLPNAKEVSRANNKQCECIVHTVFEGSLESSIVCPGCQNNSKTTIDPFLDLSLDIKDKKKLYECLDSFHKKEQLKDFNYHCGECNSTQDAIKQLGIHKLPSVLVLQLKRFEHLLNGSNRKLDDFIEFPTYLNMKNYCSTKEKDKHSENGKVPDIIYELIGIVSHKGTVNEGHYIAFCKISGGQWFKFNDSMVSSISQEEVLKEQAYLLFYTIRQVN
In words: co-IP; spheroplast lysates of the double-tagged yeast strain; Ubp8-9myc precipitated overnight at 4° with anti-myc antibody prebound to protein G Dynabeads; IP buffer 50 mM Tris pH 8, 1 mM EDTA, 50 mM NaCl, 1% NP-40; Cse4-6HA detected by anti-HA western blot.

In the case of “Cse4-6HA (centromeric histone variant Cse4, chromosome segregation protein 4) (from UniProt P36012 1-229)”, the binding entry was “binds”.
